Experimental data published in the supplement of paper PMC6078165.
± gives the standard deviation of the averaged measurements. Values are relative to the signal before dosing, not to a vehicle control; the signal also falls without drug.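 Labels refer to human fibroblasts, largely primary: uterine (C12385, HUF), lung (H6013), bone (Hs27A), adrenal (HADF), skin (WS1), plus mammary HMF and breast cancer-associated Hs343T. Cancer lines are basal-like or mesenchymal-like triple-negative breast cancer. The paper counts as hits responses shifting over 3x the replicate standard deviation. The tissue of the other fibroblasts is not given here.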

System: Hs578T
Assay: relative JC-1 red fluorescence (viability) vs pre-drug, coculture with fibroblast (fraction); higher = more viable cancer cells
Details: 10 µM
Protocol: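 JC-1 labelled TNBC cells cocultured 1:1 (1,500 cells each) with CellTrace Violet stained primary or stromal fibroblasts in 384-well plates in FluoroBrite medium, treated with one of 42 anticancer drugs at 0.1, 1, 10 or 100 uM. JC-1 red fluorescence (mitochondrial integrity in cancer cells only) was read by plate reader every 8 h for 72 h. Values are normalised to each well's pre-drug value. The stock of one drug was tenfold lower, so its dose labels may be too high.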

O=C(O)C(=O)O.[NH-][C@@H]1CCCC[C@H]1[NH-].[Pt+2] [Oxaliplatin]
Details | relative JC-1 red fluorescence
8 h | 0.938 ± 0.066
16 h | 0.835 ± 0.052
24 h | 0.75 ± 0.026
32 h | 0.694 ± 0.017
40 h | 0.6259 ± 0.00084

relative JC-1 red fluorescence
Details | 8 h | 16 h | 24 h | 32 h | 40 h
coculture fibroblast: C12385 | 0.8065 ± 0.0039 | 0.734 ± 0.012 | 0.662 ± 0.018 | 0.57 ± 0.021 | 0.504 ± 0.022
coculture fibroblast: H6013 | 0.835 ± 0.0087 | 0.787 ± 0.037 | 0.728 ± 0.043 | 0.691 ± 0.054 | 0.646 ± 0.056
coculture fibroblast: H6019 | 0.7665 ± 0.0027 | 0.678 ± 0.018 | 0.644 ± 0.03 | 0.565 ± 0.044 | 0.525 ± 0.04
coculture fibroblast: H6076 | 0.889 ± 0.02 | 0.837 ± 0.018 | 0.805 ± 0.01 | 0.8004 ± 0.0019 | 0.769 ± 0.019
coculture fibroblast: H6231 | 0.895 ± 0.059 | 0.777 ± 0.053 | 0.734 ± 0.05 | 0.687 ± 0.043 | 0.618 ± 0.048
coculture fibroblast: HADF | 0.848 ± 0.018 | 0.792 ± 0.015 | 0.7067 ± 0.0018 | 0.64 ± 0.0074 | 0.597 ± 0.016
coculture fibroblast: HCFa | 0.833 ± 0.026 | 0.768 ± 0.025 | 0.696 ± 0.009 | 0.613 ± 0.012 | 0.537 ± 0.025
coculture fibroblast: HCPF | 0.914 ± 0.011 | 0.8443 ± 0.0076 | 0.801 ± 0.016 | 0.755 ± 0.013 | –
coculture fibroblast: HHSteC | 0.845 ± 0.042 | 0.772 ± 0.061 | 0.698 ± 0.095 | 0.652 ± 0.12 | –
coculture fibroblast: HMF | 0.916 ± 0.077 | 0.86 ± 0.077 | 0.809 ± 0.043 | 0.784 ± 0.024 | –
coculture fibroblast: HPFa | 0.929 ± 0.036 | 0.842 ± 0.061 | 0.765 ± 0.066 | 0.706 ± 0.068 | –
coculture fibroblast: HUF | 0.8518 ± 0.0045 | 0.754 ± 0.017 | 0.743 ± 0.023 | 0.643 ± 0.03 | –
coculture fibroblast: Hs27A | 0.9256 ± 0.0023 | 0.8373 ± 0.0064 | 0.8131 ± 0.0021 | 0.7827 ± 0.0023 | –
coculture fibroblast: Hs343T | 0.9535 ± 0.0041 | 0.847 ± 0.027 | 0.77 ± 0.029 | 0.741 ± 0.034 | –
coculture fibroblast: WS1 | 0.812 ± 0.018 | 0.707 ± 0.033 | 0.654 ± 0.068 | 0.547 ± 0.047 | –
